Results from article PMC9342958.
Numbering of substitutions follows the chain as printed. Names may count otherwise. Results are given in words; binding and its absence hold for the method and conditions named. For some of these results: In cells and extracts the contact can be indirect. Some binding calls cover weakened binding; strength is not graded here. For some of these results: Where a sequence is shown, tags or fusion partners need not be part of it.

The chains behind the UniProt entries cited, without tags or fusion partners. Residues count along the entry.
UniProt Q9BXL6, residues 15-107: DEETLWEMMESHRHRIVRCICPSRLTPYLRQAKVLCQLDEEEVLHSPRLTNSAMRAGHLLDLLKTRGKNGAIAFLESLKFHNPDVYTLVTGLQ

What was measured:
[1] = biological target: CARD14 CARD fused to mEos3.1 (human) (UniProt Q9BXL6); experiment: FRET or BRET; DAmFRET (Distributed Amphifluoric FRET) in living S. cerevisiae: protein fused to mEos3.1, GAL promoter, about 16 hr in galactose, part of mEos3.1 photoconverted to the acceptor form, AmFRET against expression level by flow cytometry
[2] = biological target: CARD9 full-length fused to mEos3.1 (human) (UniProt Q9H257); experiment: as above
[3] = biological target: CARD9 1-142 fused to mEos3.1 (human) (UniProt Q9H257); experiment: as above
[4] = biological target: CARD9 I107E full-length fused to mEos3.1 (human) (UniProt Q9H257); experiment: as above
[5] = biological target: CARD11 CARD fused to mEos3.1 (human) (UniProt Q9BXL7); experiment: as above
[6] = biological target: CARD9 CARD R70W fused to mEos3.1 (human) (UniProt Q9H257); experiment: as above
[7] = biological target: CARD9 full-length fused to mEos3.2 (human) (UniProt Q9H257); experiment: FRET or BRET; DAmFRET in HEK293T cells: protein fused to mEos3.2, 48 hr after transfection, cells fixed in 4% PFA, photoconverted, AmFRET against expression level by flow cytometry
[8] = biological target: CARD9 CARD fused to mEos3.2 (human) (UniProt Q9H257); experiment: as above
[9] = biological target: Hs BCL10-(EA3R)4-mEos3.2 (human) (UniProt O95999); experiment: as above
[10] = biological target: BCL10 full-length fused to mEos3.1 (human) (UniProt O95999); experiment: FRET or BRET; DAmFRET (Distributed Amphifluoric FRET) in living S. cerevisiae: protein fused to mEos3.1, GAL promoter, about 16 hr in galactose, part of mEos3.1 photoconverted to the acceptor form, AmFRET against expression level by flow cytometry
[11] = biological target: endogenous untagged CARD9 of THP-1 cells (human (endogenous in THP-1)) (UniProt Q9H257); experiment: SEC; size exclusion chromatography of lysates of THP-1 cells with or without β-glucan stimulation (24 hr), fractions read by capillary immunodetection of CARD9 and BCL10
[12] = biological target: BCL10 CARD fused to mEos3.1 (human) (UniProt O95999); experiment: FRET or BRET; DAmFRET (Distributed Amphifluoric FRET) in living S. cerevisiae: protein fused to mEos3.1, GAL promoter, about 16 hr in galactose, part of mEos3.1 photoconverted to the acceptor form, AmFRET against expression level by flow cytometry
[13] = biological target: BCL10 R58G full-length fused to mEos3.1 (human) (UniProt O95999); experiment: as above

Question: Which binding [1] does the source give for “CARD14 CARD fused to mEos3.1 (from UniProt Q9BXL6 15-107) (domain or fragment)” here?
Answer: binds

B1: CARD9 full-length fused to mEos3.1 (protein, UniProt Q9H257 1-536)
chain: MSDYENDDECWSVLEGFRVTLTSVIDPSRITPYLRQCKVLNPDDEEQVLSDPNLVIRKRKVGVLLDILQRTGHKGYVAFLESLELYYPQLYKKVTGKEPARVFSMIIDASGESGLTQLLMTEVMKLQKKVQDLTALLSSKDDFIKELRVKDSLLRKHQERVQRLKEECEAGSRELKRCKEENYDLAMRLAHQSEEKGAALMRNRDLQLEIDQLKHSLMKAEDDCKVERKHTLKLRHAMEQRPSQELLWELQQEKALLQARVQELEASVQEGKLDRSSPYIQVLEEDWRQALRDHQEQANTIFSLRKDLRQGEARRLRCMEEKEMFELQCLALRKDSKMYKDRIEAILLQMEEVAIERDQAIATREELHAQHARGLQEKDALRKQVRELGEKADELQLQVFQCEAQLLAVEGRLRRQQLETLVLSSDLEDGSPRRSQELSLPQDLEDTQLSDKGCLAGGGSPKQPFAALHQEQVLRNPHDAGLSSGEPPEKERRRLKESFENYRRKRALRKMQKGWRQGEEDRENTTGSDNTDTEGS
Question: How did the binding [2] turn out when B1 was run?
Answer: binds

B2: CARD9 1-142 fused to mEos3.1 (domain or fragment, UniProt Q9H257 1-142)
chain: MSDYENDDECWSVLEGFRVTLTSVIDPSRITPYLRQCKVLNPDDEEQVLSDPNLVIRKRKVGVLLDILQRTGHKGYVAFLESLELYYPQLYKKVTGKEPARVFSMIIDASGESGLTQLLMTEVMKLQKKVQDLTALLSSKDD
Question: How did the binding [3] turn out when B2 was run?
Answer: binds

B3: CARD9 I107E full-length fused to mEos3.1 (protein, UniProt Q9H257 1-536)
chain: B1 chain with I107E
Question: Which binding [4] does the source give for B3 here?
Answer: binds

B4: CARD11 CARD fused to mEos3.1 (domain or fragment, UniProt Q9BXL7 18-110)
chain: EEDALWENVECNRHMLSRYINPAKLTPYLRQCKVIDEQDEDEVLNAPMLPSKINRAGRLLDILHTKGQRGYVVFLESLEFYYPELYKLVTGKE
Question: Which binding [5] does the source give for B4 here?
Answer: binds

B5: CARD9 CARD R70W fused to mEos3.1 (domain or fragment, UniProt Q9H257 6-98)
chain: NDDECWSVLEGFRVTLTSVIDPSRITPYLRQCKVLNPDDEEQVLSDPNLVIRKRKVGVLLDILQWTGHKGYVAFLESLELYYPQLYKKVTGKE
Question: For B5, which binding [6] is on record?
Answer: binds

B6: CARD9 full-length fused to mEos3.2 (protein, UniProt Q9H257 1-536)
chain: B1 chain
Question: Which binding [7] does the source give for B6 here?
Answer: binds

B7: CARD9 CARD fused to mEos3.2 (domain or fragment, UniProt Q9H257 6-98)
chain: B5 chain with W65R
Question: Which binding [8] does the source give for B7 here?
Answer: binds

B8: Hs BCL10-(EA3R)4-mEos3.2 (protein, UniProt O95999 1-233)
chain: MEPTAPSLTEEDLTEVKKDALENLRVYLCEKIIAERHFDHLRAKKILSREDTEEISCRTSSRKRAGKLLDYLQENPKGLDTLVESIRREKTQNFLIQKITDEVLKLRNIKLEHLKGLKCSSCEPFPDGATNNLSRSNSDESNFSEKLRASTVMYHPEGESSTTPFFSTNSSLNLPVLEVGRTENTIFSSTTLPRPGDPGAPPLPPDLQLEEEGTCANSSEMFLPLRSRTVSRQ
Question: How did the binding [9] turn out when B8 was run?
Answer: binds

B9: BCL10 full-length fused to mEos3.1 (protein, UniProt O95999 1-233)
chain: B8 chain
Question: How did the binding [10] turn out when B9 was run?
Answer: binds

B10: endogenous untagged CARD9 of THP-1 cells (protein, UniProt Q9H257 1-536)
chain: B1 chain
Question: How did the binding [11] turn out when B10 was run?
Answer: binds

B11: BCL10 CARD fused to mEos3.1 (domain or fragment, UniProt O95999 13-101)
chain: LTEVKKDALENLRVYLCEKIIAERHFDHLRAKKILSREDTEEISCRTSSRKRAGKLLDYLQENPKGLDTLVESIRREKTQNFLIQKITD
Question: Which binding [12] does the source give for B11 here?
Answer: binds

B12: BCL10 R58G full-length fused to mEos3.1 (protein, UniProt O95999 1-233)
chain: B8 chain with R58G
Question: B12 was tested. Which binding [13] did it give?
Answer: binds
